Literature values as cited in patent US20160000777A1, “METHODS OF USING HISTAMINE RECEPTOR AGONISTS AND ANTAGONISTS” (UNIVERSITY OF ROCHESTER, priority 2013, published 2016).
For at least one compound, name, drawing or mass did not settle the structure.

Tested on: ZO-1
Conditions: pretreatment with antagonist; nasal and retinal epithelial cells; cited from earlier work

## CNC(=C[N+](=O)[O-])NCCSCc1ccc(CN(C)C)o1 [ranitidine]
  Abrogation of histamine effect on ZO-1 expression: but not
